{"source": "PubChem BioAssay AID1671195 (Yale University, 2021)", "test": "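Regulators of LDL receptor activity judged by labelled LDL uptake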 (primary screen)", "cell system": "human Huh7 hepatoma cells", "knock-down reagent": "siRNA pool against human genes, 18 nM", "time to read-out": "about 2 to 2.5 days of knockdown, then 8 h LDL uptake", "conditions": "DiI-labelled LDL at 30 µg/ml for 8 h, in lipoprotein-deficient serum medium", "measured": "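Per-cell DiI-LDL intensity by automated imaging; well means scaled to the plate median and given as a robust z-score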", "direction": "robust z-score: higher = more LDL uptake after knockdown", "active means": "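a gene counts as active if at least two replicate z-scores exceed ±2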", "note": "In all, the deposit lists about 22,000 reagents; below is a part drawn at random. In the full data, about 1,510 (6.9%) were called active. 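Active includes knockdowns raising or lowering LDL uptake; positive z-scores mean more uptake, negative mean less.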 Entries without a mark were called inactive."}
{"target":"ZNF746","robust z-score, replicate 1":-0.531,"robust z-score, replicate 2":-0.929,"robust z-score, replicate 3":-0.0598}
{"target":"CISD2","robust z-score, replicate 1":0.119,"robust z-score, replicate 2":-0.00756,"robust z-score, replicate 3":0.0632}
{"target":"CYP1B1","robust z-score, replicate 1":0.152,"robust z-score, replicate 2":-0.35,"robust z-score, replicate 3":-0.13}
{"target":"ARRDC1","robust z-score, replicate 1":2.38,"robust z-score, replicate 2":0.603,"robust z-score, replicate 3":0.733}

Taken from above:
Under “robust z-score, replicate 3”, CYP1B1 is entered as -0.13
Result of ARRDC1 under “robust z-score, replicate 2”: 0.603

More entries follow:
{"target":"EZH1","robust z-score, replicate 1":-0.0641,"robust z-score, replicate 2":0.0593,"robust z-score, replicate 3":1.53}
{"target":"DLL3","robust z-score, replicate 1":-0.212,"robust z-score, replicate 2":-0.894,"robust z-score, replicate 3":0.713}
{"target":"LOC400870 (retired record)","robust z-score, replicate 1":-0.698,"robust z-score, replicate 2":-0.653,"robust z-score, replicate 3":-0.608}
{"target":"XPO1","robust z-score, replicate 1":"0.637 (active)","robust z-score, replicate 2":1.95,"robust z-score, replicate 3":2.14}
{"target":"ZNF614","robust z-score, replicate 1":2.24,"robust z-score, replicate 2":1.24,"robust z-score, replicate 3":0.484}
{"target":"UROC1","robust z-score, replicate 1":-0.507,"robust z-score, replicate 2":-0.0856,"robust z-score, replicate 3":-1.27}
{"target":"LAX1","robust z-score, replicate 1":1.45,"robust z-score, replicate 2":1.71,"robust z-score, replicate 3":1.38}
{"target":"EXOSC2","robust z-score, replicate 1":-1.51,"robust z-score, replicate 2":-1.32,"robust z-score, replicate 3":-1.69}
